From PMC5492891
Results are given in words; binding and its absence hold for the method and conditions named. Binding seen in cells or lysates may run through a third protein. Some entries that bind do so weakly or less than the wild type.

Sequences of proteins named here, by UniProt entry; tags and fusion partners are left off.
UniProt P11369: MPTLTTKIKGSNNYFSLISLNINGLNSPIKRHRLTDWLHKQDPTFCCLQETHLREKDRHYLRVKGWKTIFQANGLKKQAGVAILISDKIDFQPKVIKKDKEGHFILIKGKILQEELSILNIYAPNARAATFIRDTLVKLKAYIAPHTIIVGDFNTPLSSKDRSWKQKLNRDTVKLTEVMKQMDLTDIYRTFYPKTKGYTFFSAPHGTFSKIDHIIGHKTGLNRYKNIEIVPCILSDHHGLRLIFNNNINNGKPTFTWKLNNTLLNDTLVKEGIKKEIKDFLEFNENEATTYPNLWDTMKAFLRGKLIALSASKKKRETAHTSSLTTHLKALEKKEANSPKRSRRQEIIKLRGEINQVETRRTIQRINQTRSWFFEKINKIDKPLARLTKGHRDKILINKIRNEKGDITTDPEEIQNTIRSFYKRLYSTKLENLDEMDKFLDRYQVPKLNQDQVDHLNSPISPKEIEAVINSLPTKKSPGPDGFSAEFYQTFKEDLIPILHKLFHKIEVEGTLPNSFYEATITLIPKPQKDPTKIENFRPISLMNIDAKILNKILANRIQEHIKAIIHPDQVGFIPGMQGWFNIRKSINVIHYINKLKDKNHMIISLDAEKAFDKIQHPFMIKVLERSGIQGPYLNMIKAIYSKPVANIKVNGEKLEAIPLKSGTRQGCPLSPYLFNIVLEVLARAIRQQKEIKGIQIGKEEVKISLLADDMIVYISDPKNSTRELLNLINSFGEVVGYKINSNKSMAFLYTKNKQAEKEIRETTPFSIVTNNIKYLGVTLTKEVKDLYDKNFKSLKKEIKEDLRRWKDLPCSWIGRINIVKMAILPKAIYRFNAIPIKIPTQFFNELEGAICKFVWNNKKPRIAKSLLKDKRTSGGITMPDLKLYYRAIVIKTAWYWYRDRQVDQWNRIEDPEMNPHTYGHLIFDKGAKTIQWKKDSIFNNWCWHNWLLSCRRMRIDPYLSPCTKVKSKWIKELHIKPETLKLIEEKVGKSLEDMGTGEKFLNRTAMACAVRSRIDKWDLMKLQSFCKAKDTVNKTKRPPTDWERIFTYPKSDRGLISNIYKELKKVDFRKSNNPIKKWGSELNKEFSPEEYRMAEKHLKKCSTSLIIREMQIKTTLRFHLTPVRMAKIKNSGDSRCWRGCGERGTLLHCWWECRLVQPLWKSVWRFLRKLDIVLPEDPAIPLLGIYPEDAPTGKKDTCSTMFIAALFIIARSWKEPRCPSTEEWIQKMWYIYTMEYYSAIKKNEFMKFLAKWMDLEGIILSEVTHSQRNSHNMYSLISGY

Target: T1, Mov10 (endogenous, P2 mouse brain) (mouse (endogenous in P2 brain)) (UniProt P23249)
T1 sequence: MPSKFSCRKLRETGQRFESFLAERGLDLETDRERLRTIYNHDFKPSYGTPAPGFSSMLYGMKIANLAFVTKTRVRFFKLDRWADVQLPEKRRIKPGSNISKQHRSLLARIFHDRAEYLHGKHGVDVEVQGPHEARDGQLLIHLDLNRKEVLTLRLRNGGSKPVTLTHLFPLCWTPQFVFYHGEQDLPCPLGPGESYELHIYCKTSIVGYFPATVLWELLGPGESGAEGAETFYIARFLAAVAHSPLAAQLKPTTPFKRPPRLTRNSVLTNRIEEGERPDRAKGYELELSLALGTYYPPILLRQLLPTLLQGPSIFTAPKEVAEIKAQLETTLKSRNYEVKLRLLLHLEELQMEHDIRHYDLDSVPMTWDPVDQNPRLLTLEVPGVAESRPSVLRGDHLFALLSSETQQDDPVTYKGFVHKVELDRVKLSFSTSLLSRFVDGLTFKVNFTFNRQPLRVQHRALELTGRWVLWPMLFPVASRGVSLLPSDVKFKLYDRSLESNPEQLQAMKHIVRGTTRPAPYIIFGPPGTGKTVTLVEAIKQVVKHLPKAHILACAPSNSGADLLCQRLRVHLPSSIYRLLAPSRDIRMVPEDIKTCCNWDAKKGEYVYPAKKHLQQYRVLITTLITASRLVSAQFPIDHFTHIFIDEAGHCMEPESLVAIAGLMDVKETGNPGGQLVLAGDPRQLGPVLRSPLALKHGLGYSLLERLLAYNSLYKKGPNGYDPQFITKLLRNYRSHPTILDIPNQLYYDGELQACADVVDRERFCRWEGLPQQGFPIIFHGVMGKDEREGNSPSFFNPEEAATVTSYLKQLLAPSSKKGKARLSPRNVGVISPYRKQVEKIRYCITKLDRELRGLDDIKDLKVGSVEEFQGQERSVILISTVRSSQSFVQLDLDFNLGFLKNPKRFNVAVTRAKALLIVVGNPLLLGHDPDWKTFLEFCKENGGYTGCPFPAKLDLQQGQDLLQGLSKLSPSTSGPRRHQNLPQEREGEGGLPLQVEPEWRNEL
Experiment: co-IP; Mov10 or irrelevant antibody IP from P2 mouse brains, immunoblotted for L1-ORF2; with and without RNAse treatment

binding: binds
Substance: L1 ORF2p, the RT/endonuclease encoded by L1 (from UniProt P11369 1-1281) (enzyme)
